Patent US6887658B2, “Methods of identifying non-specific inhibitors of biomolecules” (Northwestern University, priority 2001, dated 2005)
At least one structure is not confirmed: it was looked up by name or label, or the drawing left a doubt.

Assay: Dynamic light scattering (DLS)
Type: physicochemical
Settings: for Diameter, 50 mM KPi: DLS in 50 mM KPi; for DLS Diameter / DLS Intensity: Table 4, 50 mM KPi, at the concentration under DLS conc.

SMILES | Diameter, 5 mM KPi (DLS in 5 mM KPi) [nm] | Diameter, 50 mM KPi [nm] | Diameter, 500 mM KPi (DLS in 500 mM KPi) [nm] | DLS Diameter [nm] | DLS Intensity [kcps]
Oc1ccc(-c2csc(Nc3ccc(F)cc3F)n2)cc1O [(4-((2,4-Di-fluorophenyl)amino)-3,5-thiazolyl)benzene-1,2-diol] | 102.9 ± 9.9 | 165.1 ± 10.9 | 436.2 ± 24.8 | 165.1 ± 10.9 | 32.3 ± 4.3
O=C1OC2(c3cc(I)c(O)c(I)c3Oc3c2cc(I)c(O)c3I)c2c(Cl)c(Cl)c(Cl)c(Cl)c21 [Rose Bengal lactone] |  | 403.1 ± 82.2 |  | 403.1 ± 82.2 | 115.1 ± 65.6
